According to publication PMC8429977, “Phosphorylation of slit diaphragm proteins NEPHRIN and NEPH1 upon binding of HGF promotes podocyte repair” (The Journal of Biological Chemistry, 2021):
No constants are given. Whether binding was seen depends on the method and setting. For part of these data: In cells and extracts the contact can be indirect. Some results given as binding are weak or reduced against the parent protein; the word gives no strength. For part of these data: Tags and fused reporters may be left off the sequences shown.

By UniProt entry, the sequences of proteins in these tests, tags left out. Residues count along the entry.
UniProt P14210, residues 32-728: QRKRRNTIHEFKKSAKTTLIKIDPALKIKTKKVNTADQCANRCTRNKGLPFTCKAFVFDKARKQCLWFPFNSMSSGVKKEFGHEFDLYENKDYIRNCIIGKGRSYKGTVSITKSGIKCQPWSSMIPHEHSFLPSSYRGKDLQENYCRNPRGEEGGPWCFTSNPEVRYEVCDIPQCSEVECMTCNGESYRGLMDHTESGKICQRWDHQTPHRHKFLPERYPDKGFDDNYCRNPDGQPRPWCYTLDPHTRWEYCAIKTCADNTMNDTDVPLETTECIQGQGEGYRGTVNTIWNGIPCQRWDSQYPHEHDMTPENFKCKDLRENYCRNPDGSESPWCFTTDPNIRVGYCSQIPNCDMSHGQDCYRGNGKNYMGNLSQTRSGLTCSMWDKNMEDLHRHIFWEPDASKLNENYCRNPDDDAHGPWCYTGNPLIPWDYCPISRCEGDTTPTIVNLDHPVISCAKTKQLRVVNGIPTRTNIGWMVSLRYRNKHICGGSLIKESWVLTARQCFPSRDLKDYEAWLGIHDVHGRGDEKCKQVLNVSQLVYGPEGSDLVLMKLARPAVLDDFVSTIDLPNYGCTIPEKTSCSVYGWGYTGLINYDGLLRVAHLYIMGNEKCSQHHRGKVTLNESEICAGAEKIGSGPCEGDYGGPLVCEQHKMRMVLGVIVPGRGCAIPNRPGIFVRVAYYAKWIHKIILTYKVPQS

Legend:
NEPHRIN Peptide-2 = target: T1, NEPHRIN Peptide-2; experiment: condition: 300 ng peptide spotted; 1 μg recombinant purified HGF; far-Western, overlay or dot blot; 300 ng peptide spotted on nitrocellulose, blocked with fat-free milk, incubated with 1 μg recombinant purified HGF in 5% BSA in PBS at 4 °C, detected with anti-HGF antibody; both purified
T1 sequence (peptide): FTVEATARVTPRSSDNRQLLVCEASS

[1] = target: HGF-FLAG expressed in HEK293 cells (UniProt P14210); experiment: co-IP; HEK 293T cells stably expressing FLAG-NEPH1 or FLAG-NEPHRIN transfected with HGF plasmid; RIPA lysate; anti-HGF antibody and protein G agarose, 4 °C; Western blot with FLAG antibody

Question: “purified human recombinant HGF (from UniProt P14210 32-728) (ligand)” was tested. Which binding (NEPHRIN Peptide-2) did it give?
Answer: The binding was “no binding”.

B1: FLAG-tagged full-length NEPHRIN (protein, UniProt Q9QZS7 37-1256)
chain: QSPVPTSAPRGFWALSENLTVVEGSTVKLWCGVRAPGSVVQWAKDGLLLGPNPKIPGFPRYSLEGDSAKGEFHLLIEACDLSDDAEYECQVGRSELGPELVSPSVILSILVSPKVLQLTPEAGSTVTWVAGQEYVVTCVSGDAKPAPDIIFIQGGRTVEDVSSSVNEGSEEKLFFTEAEARVTPQSSDNGQLLVCEGSNPALATPIKASFTMNILFPPGPPVIDWPGLNEGHVRAGENLELPCIARGGNPPATLQWLKNGKPVSIAWGTEHAQAVAHSVLVMTVRPEDHGARLSCQSYNSVSAETQERSITLQVTFPPSAVTILGSTSQSENKNVTLCCLTKSSRPRVLLRWWLGGRQLLPTDETVMDGLHGGHISMSNLTLLVKREDNGLSLTCEAFSDAFSKETFKKSLTLNVKYPAQKLWIEGPPEGQSIRTGTRVRLVCLAIGGNPEPSLTWLKDSRPVNDPRQSQEPRRVQLGSVEKSGSTFSRELVLIIGPPDNLAKFSCKAGQLSASTQLVVQFPPTNLTILANSSALRPGDALNLTCVSISSNPPVNLSLDKEGERLDDVAAKPQSAPFKGSAASRSVFLRVSSRDHGHRVTCRAHSEALRETVSSFYRLNVLYPPEFLGEQVRAVTVVEQGQALLPVSVSANPAPEAFNWTFRGYRLSPAGGPRHRILSGGALQLWNVTRADDGFYQLHCQNSEGTAEALLKLDVHYAPTIRALKDPTEVNVGGSVDIVCTVDANPILPEMFSWERLGEDEEELNLDDMEKMSKGSTGRLRIRQAKLSQAGAYQCIVDNGVAPAARGLVRLVVRFAPQVDHPTPLTKVAAAGDSTSSATLHCRARGVPNIDFTWTKNGVPLDLQDPRYTEHKYHQGVVHSSLLTIANVSAAQDYALFKCTATNALGSDHTNIQLVSISRPDPPLGLKVVSVSPHSVGLEWKPGFDGGLPQRFQIRYEALESPGFLYMDVLPAQATTFTLTGLKPSTRYRIWLLASNALGDSGLTDKGIQVSITTPGLDQAPEDTDQPLPTEQPPGPPRLPLLPVLFAVGGLLLLSNASCVGGLLWRRRLRRLAEEISEKTEAGSEEDRIRNEYEESQWTGDRDTRSSTVSTAEVDPHYYSMRDFSPQLPPTLEEVSYRQAFTGIEDEDMAFPGHLYDEVERVYGPPGVWGPLYDEVQMDPYDLRWPEVKYEDPRGIYDQVAADMDAGEPGSLPFELRGHLV
Question: How did the binding [1] turn out when B1 was run?
Answer: The binding was “binds”.

B2: FLAG-tagged full-length NEPH1 (protein, UniProt Q80W68 48-789)
chain: LPGTQTRFSQEPADQTVVAGQRAVLPCVLLNYSGIVQWTKDGLALGMGQGLKAWPRYRVVGSADAGQYNLEITDAELSDDASYECQATEAALRSRRAKLTVLIPPEETRIDGGPVILLQAGTPYNLTCRAFNAKPAATIIWFRDGTQQEGAVTSTELLKDGKRETTISQLLIEPTDLDIGRVFTCRSMNEAIPNGKETSIELDVHHPPTVTLSIEPQTVLEGERVIFTCQATANPEILGYRWAKGGFLIEDAHESRYETNVDYSFFTEPVSCEVYNKVGSTNVSTLVNVHFAPRIVVYPKPTTTDIGSDVTLTCVWVGNPPLTLTWTKKDSNMVLSNSNQLLLKSVTQADAGTYTCRAIVPRIGVAEREVPLYVNGPPIISSEAVQFAVRGDGGKVECFIGSTPPPDRIAWAWKENFLEVGTLERYTVERTNSGSGVLSTLTINNVMEADFQTHYNCTAWNSFGPGTAIIQLEEREVLPVGIIAGATIGAGILVVFSFAALVFFLYRRRKGSRKDVTLRKLDIKVETVNREPLTMHSDREDDTASISTATRVMKAIYSSFKDDVDLKQDLRCDTIDTREEYEMKDPTNGYYNVRAHEDRPSSRAVLYADYRAPGPTRFDGRPSSRLSHSSGYAQLNTYSRAPASDYGTEPTPSGPSAPGGTDTTSQLSYENYEKFNSHPFPGAAGYPTYRLGYPQAPPSGLERTPYEAYDPIGKYATATRFSYTSQHSDYGQRFQQRMQTHV
Question: With B2 as the molecule, how does the binding [1] read?
Answer: The binding was “binds”.
